Results reported in publication PMC9561260.
No constants are given. Whether binding was seen depends on the method and setting. Binding seen in cells or lysates may run through a third protein. A yes stands for co-enrichment or nearness to the bait. Other partners may have been found. Where a sequence is shown, tags or fusion partners need not be part of it.

T1: 2× HA-3× FLAG-Eya1 (UniProt P97767)
T1 sequence: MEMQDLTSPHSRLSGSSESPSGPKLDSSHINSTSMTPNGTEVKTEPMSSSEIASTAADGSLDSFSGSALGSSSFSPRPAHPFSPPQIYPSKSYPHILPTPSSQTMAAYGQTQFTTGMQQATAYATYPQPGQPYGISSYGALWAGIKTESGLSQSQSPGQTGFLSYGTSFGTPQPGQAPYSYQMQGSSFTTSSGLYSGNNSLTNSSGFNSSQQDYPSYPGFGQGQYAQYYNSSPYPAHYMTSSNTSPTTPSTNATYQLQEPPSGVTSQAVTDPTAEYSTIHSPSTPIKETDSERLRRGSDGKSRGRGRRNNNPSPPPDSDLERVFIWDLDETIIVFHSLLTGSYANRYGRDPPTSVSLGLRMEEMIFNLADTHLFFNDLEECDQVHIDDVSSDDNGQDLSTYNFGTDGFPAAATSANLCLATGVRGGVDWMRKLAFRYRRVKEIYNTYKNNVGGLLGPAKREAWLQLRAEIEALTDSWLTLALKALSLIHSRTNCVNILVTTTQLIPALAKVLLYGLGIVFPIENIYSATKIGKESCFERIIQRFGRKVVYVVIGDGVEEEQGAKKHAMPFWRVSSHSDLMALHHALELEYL

B1: PDS5A (sister chromatid cohesion protein) (protein, UniProt Q29RF7 1-1337)
chain: MDFTAQPKPATALCGVVSADGKIAYPPGVKEITDKITTDEMIKRLKMVVKTFMDMDQDSEDEKQQYLPLALHLASEFFLRNPNKDVRLLVACCLADIFRIYAPEAPYTSHDKLKDIFLFITRQLKGLEDTKSPQFNRYFYLLENLAWVKSYNICFELEDCNEIFIQLFRTLFSVINNSHNKKVQMHMLDLMSSIIMEGDGVTQELLDSILINLIPAHKNLNKQSFDLAKVLLKRTVQTIEACIANFFNQVLVLGRSSVSDLSEHVFDLIQELFAIDPHLLLSVMPQLEFKLKSNDGEERLAVVRLLAKLFGSKDSDLATQNRPLWQCFLGRFNDIHVPVRLESVKFASHCLMNHPDLAKDLTEYLKVRSHDPEEAIRHDVIVTIITAAKRDLALVNDQLLGFVRERTLDKRWRVRKEAMMGLAQLYKKYCLHGEAGKEAAEKVSWIKDKLLHIYYQNSIDDKLLVEKIFAQYLVPHNLETEERMKCLYYLYASLDPNAVKALNEMWKCQNMLRSHVRELLDLHKQPTSEANCSAMFGKLMTIAKNLPDPGKAQDFVKKFNQVLGDDEKLRSQLELLISPTCSCKQADICVREIARKLANPKQPTNPFLEMVKFLLERIAPVHIDSEAISALVKLMNKSIEGTADDEEEGVSPDTAIRSGLELLKVLSFTHPTSFHSAETYESLLQCLRMEDDKVAEAAIQIFRNTGHKIETDLPQIRSTLIPILHQKAKRGTPHQAKQAVHCIHAIFTNKEVQLAQIFEPLSRSLNADVPEQLITPLVSLGHISMLAPDQFASPMKSVVANFIVKDLLMNDRSTGEKNGKLWSPDEEVSPEVLAKVQAIKLLVRWLLGMKNNQSKSANSTLRLLSAMLVSEGDLTEQKRISKSDMSRLRLAAGSAIMKLAQEPCYHEIITPEQFQLCALVINDECYQVRQIFAQKLHKALVKLLLPLEYMAIFALCAKDPVKERRAHARQCLLKNISIRREYIKQNPMATEKLLSLLPEYVVPYMIHLLAHDPDFTRSQDVDQLRDIKECLWFMLEVLMTKNENNSHAFMKKMAENIKLTRDAQSPDESKTNEKLYTVCDVALCVINSKSALCNADSPKDPVLPMKFFTQPEKDFCNDKSYISEETRVLLLTGKPKPAGVLGAVNKPLSATGRKPYVRSTGTETGSNINVNSELNPSTGNRSREQSSEAAETGVSENEENPVRIISVTPVKNIDPVKNKEINSDQATQGNISSDRGKKRTVTAAGAENIQQKTDEKVDESGPPAPSKPRRGRRPKSESQGNATKNDDLNKPINKGRKRAAVGQESPGGLEAGNAKAPKLQDLAKKAAPAERQIDLQR
B2: WAPAL (regulator of sister chromatid cohesion) (protein, UniProt B2RTX8 1-1184)
chain: MTSRFGKTYSRKGGNGSSKFDEVFSNKRTTLSTKWGETTFMAKLGQKRPNFKPDIQEIPKKPKVEEESTGDPFGFDSDDESLPVSSKNLAQVKCSSYSESSEAAQLEEVTSVLEANSKISHVVVEDTVVSDKCFPLEDTLLGKEKSTNRIVEDDASISSCNKLITSDKVENFHEEHEKNSHHIHKNADDSTKKPNAETTVASEIKETNDTWNSQFGKRPESPSEISPIKGSVRTGLFEWDNDFEDIRSEDCILSLDSDPLLEMKDDDFKNRLENLNEAIEEDIVQSVLRPTNCRTYCRANKTKSSQGASNFDKLMDGTSQALAKANSESSKDGLNQAKKGGVSCGTSFRGTVGRTRDYTVLHPSCLSVCNVTIQDTMERSMDEFTASTPADLGEAGRLRKKADIATSKTTTRFRPSNTKSKKDVKLEFFGFEDHETGGDEGGSGSSNYKIKYFGFDDLSESEDDEDDDCQVERKTSKKRTKTAPSPSLQPPPESNDNSQDSQSGTNNAEDLPGVPESVKKPINKQGDKSKENTRKIFSGPKRSPTKAVYNARHWNHPDSEELPGPPVVKPQSVTVRLSSKEPNQKDDGVFKAPAPPSKVIKTVTIPTQPYQDIVTALKCRREDKELYTVVQHVKHFNDVVEFGENQEFTDDIEYLLSGLKSTQPLNTRCLSVISLATKCAMPSFRMHLRAHGMVAMVFKTLDDSQHHQNLSLCTAALMYILSRDRLNMDLDRASLDLMIRLLELEQDASSAKLLNEKDMNKIKEKIRRLCETVHNKHLDLENITTGHLAMETLLSLTSKRAGDWFKEELRLLGGLDHIVDKVKECVDHLSRDEDEEKLVASLWGAERCLRVLESVTVHNPENQSYLIAYKDSQLIVSSAKALQHCEELIQQYNRAEDSICLADSKPLPHQNVTNHVGKAVEDCMRAIIGVLLNLTNDNEWGSTKTGEQDGLIGTALNCVLQVPKYLPQEQRFDIRVLGLGLLINLVEYSARNRHCLVNMETSCSFDSSICSGEGDDSLRIGGQVHAVQALVQLFLERERAAQLAESKTDELIKDAPTTQHDKSGEWQETSGEIQWVSTEKTDGTEEKHKKEEEDEELDLNKALQHAGKHMEDCIVASYTALLLGCLCQESPINVTTVREYLPEGDFSIMTEMLKKFLSFMNLTCAVGTTGQKSISRVIEYLEHC
B3: TAB1 (proliferation and apoptosis) (protein, UniProt Q15750 1-504)
chain: MAAQRRSLLQSEQQPSWTDDLPLCHLSGVGSASNRSYSADGKGTESHPPEDSWLKFRSENNCFLYGVFNGYDGNRVTNFVAQRLSAELLLGQLNAEHAEADVRRVLLQAFDVVERSFLESIDDALAEKASLQSQLPEGVPQHQLPPQYQKILERLKTLEREISGGAMAVVAVLLNNKLYVANVGTNRALLCKSTVDGLQVTQLNVDHTTENEDELFRLSQLGLDAGKIKQVGIICGQESTRRIGDYKVKYGYTDIDLLSAAKSKPIIAEPEIHGAQPLDGVTGFLVLMSEGLYKALEAAHGPGQANQEIAAMIDTEFAKQTSLDAVAQAVVDRVKRIHSDTFASGGERARFCPRHEDMTLLVRNFGYPLGEMSQPTPSPAPAAGGRVYPVSVPYSSAQSTSKTSVTLSLVMPSQGQMVNGAHSASTLDEATPTLTNQSPTLTLQSTNTHTQSSSSSSDGGLFRSRPAHSLPPGEDGRVEPYVDFAEFYRLWSVDHGEQSVVTAP
B4: MAGED1 (inhibits cell cycle and facilitates NGFR-mediated apoptosis) (protein, UniProt Q9Y5V3-2 1-834)
chain: MAQKMDCGAGLLGFQNPDACRAVCHPLPQPPASTLPLSAFPTLCDPPYSQLRDPPAVLSCYCTPLGASPAPAEASVEDSALLMQTLMEAIQISEAPPTNQATAAASPQSSQPPTANEMADIQVSAAAARPKSAFKVQNATTKGPNGVYDFSQAHNAKDVPNTQPKAAFKSQNATPKGPNAAYDFSQAATTGELAANKSEMAFKAQNATTKVGPNATYNFSQSLNANDLANSRPKTPFKAWNDTTKAPTADTQTQNVNQAKMATSQADIETDPGISEPDGATAQTSADGSQAQNLESRTIIRGKRTRKINNLNVEENSSGDQRRAPLAAGTWRSAPVPVTTQNPPGAPPNVLWQTPLAWQNPSGWQNQTARQTPPARQSPPARQTPPAWQNPVAWQNPVIWPNPVIWQNPVIWPNPIVWPGPVVWPNPLAWQNPPGWQTPPGWQTPPGWQGPPDWQGPPDWPLPPDWPLPPDWPLPTDWPLPPDWIPADWPIPPDWQNLRPSPNLRPSPNSRASQNPGAAQPRDVALLQERANKLVKYLMLKDYTKVPIKRSEMLRDIIREYTDVYPEIIERACFVLEKKFGIQLKEIDKEEHLYILISTPESLAGILGTTKDTPKLGLLLVILGVIFMNGNRASEAVLWEALRKMGLRPGVRHPLLGDLRKLLTYEFVKQKYLDYRRVPNSNPPEYEFLWGLRSYHETSKMKVLRFIAEVQKRDPRDWTAQFMEAADEALDALDAAAAEAEARAEARTRMGIGDEAVSGPWSWDDIEFELLTWDEEGDFGDPWSRIPFTFWARYHQNARSRFPQTFAGPIIGPGGTASANFAANFGAIGFFWVE
B5: CDYL (protein, UniProt Q9Y232 1-598)
chain: MTFQASHRSAWGKSRKKNWQYEGPTQKLFLKRNNVSAPDGPSDPSISVSSEQSGAQQPPALQVERIVDKRKNKKGKTEYLVRWKGYDSEDDTWEPEQHLVNCEEYIHDFNRRHTEKQKESTLTRTNRTSPNNARKQISRSTNSNFSKTSPKALVIGKDHESKNSQLFAASQKFRKNTAPSLSSRKNMDLAKSGIKILVPKSPVKSRTAVDGFQSESPEKLDPVEQGQEDTVAPEVAAEKPVGALLGPGAERARMGSRPRIHPLVPQVPGPVTAAMATGLAVNGKGTSPFMDALTANGTTNIQTSVTGVTASKRKFIDDRRDQPFDKRLRFSVRQTESAYRYRDIVVRKQDGFTHILLSTKSSENNSLNPEVMREVQSALSTAAADDSKLVLLSAVGSVFCCGLDFIYFIRRLTDDRKRESTKMAEAIRNFVNTFIQFKKPIIVAVNGPAIGLGASILPLCDVVWANEKAWFQTPYTTFGQSPDGCSTVMFPKIMGGASANEMLLSGRKLTAQEACGKGLVSQVFWPGTFTQEVMVRIKELASCNPVVLEESKALVRCNMKMELEQANERECEVLKKIWGSAQGMDSMLKYLQRKIDEF

These binders were tested against T1, 2× HA-3× FLAG-Eya1 (assay: affinity purification with mass spectrometry; tandem purification of HF-Eya1 from lysate of stable HEK293 cells: anti-FLAG M2 beads, FLAG peptide elution, then anti-HA agarose; 50 mM Tris-HCl pH 7.5, 150 mM NaCl, 0.1% Nonidet P-40, 4°C; 12 bands (B1-B12) cut from a silver-stained gel).

binding, binds:
B1, B2, B3, B4, B5
